Measured values reported in doi:10.1101/2024.03.21.586141.
Where a chain is given by its changes, count along the chain named. Numbers in names are those of the source. Read-outs that look alike come from different tables or passages of the source. No constants are given. Whether binding was seen depends on the method and setting. Binding seen in cells or lysates may run through a third protein. Some entries that bind do so weakly or less than the wild type. Each block holds one binder with its values, some of them ahead of it.

What was measured:
Assay in all cases: split reporter
[1] = target: human α1,4-galactosyltransferase (A4galt), high-frequency enzyme (p.Q211) (human) (UniProt Q9NPC4)
[2] = target: human α1,4-galactosyltransferase (A4galt), high-frequency enzyme (p.Q211) (human) (UniProt Q9NPC4); remark: listed apart in the source
[3] = target: human α1,4-galactosyltransferase (A4galt), mutein with p.Q211E substitution (human) (UniProt Q9NPC4)
[4] = target: human α1,4-galactosyltransferase (A4galt), mutein with p.Q211E substitution (human) (UniProt Q9NPC4); remark: listed apart in the source

binding [1]: binds | binding [2]: binds
B1: human α1,4-galactosyltransferase (A4galt), high-frequency enzyme (p.Q211) (enzyme, UniProt Q9NPC4 1-353)
chain: MSKPPDLLLRLLRGAPRQRVCTLFIIGFKFTFFVSIMIYWHVVGEPKEKGQLYNLPAEIPCPTLTPPTPPSHGPTPGNIFFLETSDRTNPNFLFMCSVESAARTHPESHVLVLMKGLPGGNASLPRHLGISLLSCFPNVQMLPLDLRELFRDTPLADWYAAVQGRWEPYLLPVLSDASRIALMWKFGGIYLDTDFIVLKNLRNLTNVLGTQSRYVLNGAFLAFERRHEFMALCMRDFVDHYNGWIWGHQGPQLLTRVFKKWCSIRSLAESRACRGVTTLPPEAFYPIPWQDWKKYFEDINPEELPRLLSATYAVHVWNKKSQGTRFEATSRALLAQLHARYCPTTHEAMKMYL

binding [3]: binds | binding [4]: binds
B2: human α1,4-galactosyltransferase (A4galt), mutein with p.Q211E substitution (enzyme, UniProt Q9NPC4 1-353)
chain: B1 chain with Q211E
